The list shows a part of the results. The data scatter; read single values as rough.
Assays:
[1] = compound: ClCC(=O)N[C@@H]1CCCc2ccccc12; assay: log2 mean competition ratio of IA-DTB cysteine labelling (DMSO/compound) (log2 ratio); higher = stronger cysteine engagement by compound; conditions: treatment time: 4 h, cell line lysate: HEK293T
Method: (§1)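 IA-DTB competitive cysteine chemoproteomics in HEK293T RIPA lysate. Lysates were treated with compound 29 or 30 at 50 or 200 µM for 4 h, then IA-DTB (500 µM, 1 h), trypsin-digested, NeutrAvidin-enriched and analysed by diaPASEF. Competition ratio = intensity DMSO / intensity compound (n=4 treated, n=64 DMSO); binding: mean log2 CR ≥ 1 and p ≤ 0.05 plus QC filters. Target is the cysteine site.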

By UniProt entry, the sequences of proteins in these tests, tags left out. Where a name states a change or a piece, a line headed by the entry shows the natural chain unless it says otherwise. Residues count along the entry.
UniProt Q6SZW1: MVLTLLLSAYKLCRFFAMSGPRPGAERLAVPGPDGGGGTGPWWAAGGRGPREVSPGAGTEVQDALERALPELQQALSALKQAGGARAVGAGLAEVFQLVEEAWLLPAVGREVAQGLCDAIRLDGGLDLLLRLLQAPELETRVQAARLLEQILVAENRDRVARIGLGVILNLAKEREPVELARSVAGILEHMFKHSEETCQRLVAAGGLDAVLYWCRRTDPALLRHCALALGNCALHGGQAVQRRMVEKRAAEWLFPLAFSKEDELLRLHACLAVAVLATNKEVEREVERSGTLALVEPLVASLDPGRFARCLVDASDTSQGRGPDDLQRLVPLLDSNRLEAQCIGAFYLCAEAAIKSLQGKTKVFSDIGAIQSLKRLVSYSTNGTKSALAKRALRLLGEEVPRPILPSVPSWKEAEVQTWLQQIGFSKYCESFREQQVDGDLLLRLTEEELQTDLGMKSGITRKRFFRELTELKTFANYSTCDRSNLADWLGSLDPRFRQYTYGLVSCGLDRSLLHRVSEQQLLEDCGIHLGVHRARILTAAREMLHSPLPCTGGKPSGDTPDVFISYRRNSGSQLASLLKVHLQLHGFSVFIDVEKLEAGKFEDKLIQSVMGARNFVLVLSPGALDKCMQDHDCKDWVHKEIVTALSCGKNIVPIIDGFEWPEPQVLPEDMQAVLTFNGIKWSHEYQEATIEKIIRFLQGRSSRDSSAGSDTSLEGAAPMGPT
UniProt P60468, whole entry, looked up: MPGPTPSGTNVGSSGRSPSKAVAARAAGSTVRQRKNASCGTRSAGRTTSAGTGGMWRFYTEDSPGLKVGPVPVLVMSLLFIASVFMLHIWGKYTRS
UniProt Q9BY12, 294-313: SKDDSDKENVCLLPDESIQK
UniProt A1X283: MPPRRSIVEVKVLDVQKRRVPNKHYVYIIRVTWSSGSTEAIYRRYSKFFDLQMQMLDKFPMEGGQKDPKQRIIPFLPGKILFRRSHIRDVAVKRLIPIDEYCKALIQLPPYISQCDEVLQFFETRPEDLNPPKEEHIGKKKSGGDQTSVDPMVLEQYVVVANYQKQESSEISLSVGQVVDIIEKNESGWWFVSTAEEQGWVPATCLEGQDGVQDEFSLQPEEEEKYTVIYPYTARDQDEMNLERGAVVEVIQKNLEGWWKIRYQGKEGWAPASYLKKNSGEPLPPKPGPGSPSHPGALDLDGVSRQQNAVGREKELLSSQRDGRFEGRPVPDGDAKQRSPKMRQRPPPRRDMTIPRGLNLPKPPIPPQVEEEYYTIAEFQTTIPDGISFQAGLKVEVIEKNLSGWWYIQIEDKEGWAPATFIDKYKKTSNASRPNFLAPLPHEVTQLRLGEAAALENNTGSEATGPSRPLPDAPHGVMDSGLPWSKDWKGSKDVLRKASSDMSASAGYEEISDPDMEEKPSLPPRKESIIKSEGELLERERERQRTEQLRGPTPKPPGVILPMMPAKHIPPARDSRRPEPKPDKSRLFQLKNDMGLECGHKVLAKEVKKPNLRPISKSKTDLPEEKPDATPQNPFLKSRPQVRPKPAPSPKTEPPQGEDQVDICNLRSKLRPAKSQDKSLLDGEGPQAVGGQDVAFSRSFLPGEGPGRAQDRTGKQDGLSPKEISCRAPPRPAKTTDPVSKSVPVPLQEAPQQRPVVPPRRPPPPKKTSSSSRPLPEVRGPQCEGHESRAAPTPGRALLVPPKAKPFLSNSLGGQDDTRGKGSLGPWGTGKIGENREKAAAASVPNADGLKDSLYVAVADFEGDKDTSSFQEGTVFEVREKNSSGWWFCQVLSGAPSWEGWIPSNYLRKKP
UniProt Q99590, 449-469: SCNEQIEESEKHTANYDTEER
UniProt A0MZ66, whole entry, looked up: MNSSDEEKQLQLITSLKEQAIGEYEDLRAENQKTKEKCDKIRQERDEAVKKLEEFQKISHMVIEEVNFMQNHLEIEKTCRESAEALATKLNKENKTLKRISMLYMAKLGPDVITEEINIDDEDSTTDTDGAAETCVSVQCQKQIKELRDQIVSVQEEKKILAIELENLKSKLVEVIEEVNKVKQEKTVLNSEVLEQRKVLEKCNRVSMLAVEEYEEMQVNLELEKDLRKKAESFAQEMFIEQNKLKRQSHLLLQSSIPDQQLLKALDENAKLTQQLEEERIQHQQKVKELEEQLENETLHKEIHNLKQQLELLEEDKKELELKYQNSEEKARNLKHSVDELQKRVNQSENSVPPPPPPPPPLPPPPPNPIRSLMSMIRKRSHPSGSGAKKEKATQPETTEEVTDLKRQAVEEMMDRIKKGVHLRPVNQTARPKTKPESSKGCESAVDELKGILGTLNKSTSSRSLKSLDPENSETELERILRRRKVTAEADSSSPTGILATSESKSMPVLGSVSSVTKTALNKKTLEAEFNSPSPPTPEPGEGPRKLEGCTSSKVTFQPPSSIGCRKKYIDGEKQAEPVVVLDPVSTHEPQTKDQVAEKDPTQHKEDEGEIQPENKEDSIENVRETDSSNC
UniProt Q96EE3: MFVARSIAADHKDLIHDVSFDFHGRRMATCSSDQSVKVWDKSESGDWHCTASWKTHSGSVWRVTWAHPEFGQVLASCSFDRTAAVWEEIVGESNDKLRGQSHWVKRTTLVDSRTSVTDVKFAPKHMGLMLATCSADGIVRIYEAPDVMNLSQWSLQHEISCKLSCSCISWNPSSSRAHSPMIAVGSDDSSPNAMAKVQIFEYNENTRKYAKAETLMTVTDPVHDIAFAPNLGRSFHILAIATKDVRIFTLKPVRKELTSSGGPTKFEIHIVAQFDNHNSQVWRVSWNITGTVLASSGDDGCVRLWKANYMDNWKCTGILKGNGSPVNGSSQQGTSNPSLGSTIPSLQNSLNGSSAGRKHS
UniProt Q9BX95: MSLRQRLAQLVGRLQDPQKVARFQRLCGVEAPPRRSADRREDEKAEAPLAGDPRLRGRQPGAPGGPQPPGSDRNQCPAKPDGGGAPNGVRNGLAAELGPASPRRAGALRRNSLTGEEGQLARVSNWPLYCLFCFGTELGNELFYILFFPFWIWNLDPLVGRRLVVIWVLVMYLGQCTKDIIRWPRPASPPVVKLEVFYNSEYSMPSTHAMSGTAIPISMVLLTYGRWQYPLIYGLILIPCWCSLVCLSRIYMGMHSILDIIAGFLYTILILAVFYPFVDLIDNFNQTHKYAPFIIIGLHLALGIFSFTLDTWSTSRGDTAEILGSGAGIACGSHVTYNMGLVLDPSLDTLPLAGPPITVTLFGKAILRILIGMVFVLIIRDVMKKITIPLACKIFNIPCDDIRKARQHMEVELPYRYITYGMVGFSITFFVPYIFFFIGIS
UniProt Q9Y3L3: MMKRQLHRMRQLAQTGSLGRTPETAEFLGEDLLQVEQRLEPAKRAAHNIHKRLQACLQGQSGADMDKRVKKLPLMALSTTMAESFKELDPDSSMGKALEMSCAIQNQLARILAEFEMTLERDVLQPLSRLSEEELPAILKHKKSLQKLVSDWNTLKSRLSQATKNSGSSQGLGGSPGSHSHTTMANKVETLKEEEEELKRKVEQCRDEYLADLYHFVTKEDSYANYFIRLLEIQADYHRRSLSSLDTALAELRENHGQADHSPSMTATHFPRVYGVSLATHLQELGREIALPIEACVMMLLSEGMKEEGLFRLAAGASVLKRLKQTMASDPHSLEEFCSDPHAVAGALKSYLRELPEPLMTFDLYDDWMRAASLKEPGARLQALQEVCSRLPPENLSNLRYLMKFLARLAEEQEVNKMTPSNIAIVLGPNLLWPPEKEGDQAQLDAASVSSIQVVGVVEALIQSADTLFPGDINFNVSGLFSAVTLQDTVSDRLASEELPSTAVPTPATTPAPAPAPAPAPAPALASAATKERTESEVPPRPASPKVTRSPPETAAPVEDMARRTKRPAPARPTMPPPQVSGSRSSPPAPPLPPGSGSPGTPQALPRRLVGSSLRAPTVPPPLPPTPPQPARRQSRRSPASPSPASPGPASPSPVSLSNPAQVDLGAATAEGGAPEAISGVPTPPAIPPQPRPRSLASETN
UniProt Q86WG5: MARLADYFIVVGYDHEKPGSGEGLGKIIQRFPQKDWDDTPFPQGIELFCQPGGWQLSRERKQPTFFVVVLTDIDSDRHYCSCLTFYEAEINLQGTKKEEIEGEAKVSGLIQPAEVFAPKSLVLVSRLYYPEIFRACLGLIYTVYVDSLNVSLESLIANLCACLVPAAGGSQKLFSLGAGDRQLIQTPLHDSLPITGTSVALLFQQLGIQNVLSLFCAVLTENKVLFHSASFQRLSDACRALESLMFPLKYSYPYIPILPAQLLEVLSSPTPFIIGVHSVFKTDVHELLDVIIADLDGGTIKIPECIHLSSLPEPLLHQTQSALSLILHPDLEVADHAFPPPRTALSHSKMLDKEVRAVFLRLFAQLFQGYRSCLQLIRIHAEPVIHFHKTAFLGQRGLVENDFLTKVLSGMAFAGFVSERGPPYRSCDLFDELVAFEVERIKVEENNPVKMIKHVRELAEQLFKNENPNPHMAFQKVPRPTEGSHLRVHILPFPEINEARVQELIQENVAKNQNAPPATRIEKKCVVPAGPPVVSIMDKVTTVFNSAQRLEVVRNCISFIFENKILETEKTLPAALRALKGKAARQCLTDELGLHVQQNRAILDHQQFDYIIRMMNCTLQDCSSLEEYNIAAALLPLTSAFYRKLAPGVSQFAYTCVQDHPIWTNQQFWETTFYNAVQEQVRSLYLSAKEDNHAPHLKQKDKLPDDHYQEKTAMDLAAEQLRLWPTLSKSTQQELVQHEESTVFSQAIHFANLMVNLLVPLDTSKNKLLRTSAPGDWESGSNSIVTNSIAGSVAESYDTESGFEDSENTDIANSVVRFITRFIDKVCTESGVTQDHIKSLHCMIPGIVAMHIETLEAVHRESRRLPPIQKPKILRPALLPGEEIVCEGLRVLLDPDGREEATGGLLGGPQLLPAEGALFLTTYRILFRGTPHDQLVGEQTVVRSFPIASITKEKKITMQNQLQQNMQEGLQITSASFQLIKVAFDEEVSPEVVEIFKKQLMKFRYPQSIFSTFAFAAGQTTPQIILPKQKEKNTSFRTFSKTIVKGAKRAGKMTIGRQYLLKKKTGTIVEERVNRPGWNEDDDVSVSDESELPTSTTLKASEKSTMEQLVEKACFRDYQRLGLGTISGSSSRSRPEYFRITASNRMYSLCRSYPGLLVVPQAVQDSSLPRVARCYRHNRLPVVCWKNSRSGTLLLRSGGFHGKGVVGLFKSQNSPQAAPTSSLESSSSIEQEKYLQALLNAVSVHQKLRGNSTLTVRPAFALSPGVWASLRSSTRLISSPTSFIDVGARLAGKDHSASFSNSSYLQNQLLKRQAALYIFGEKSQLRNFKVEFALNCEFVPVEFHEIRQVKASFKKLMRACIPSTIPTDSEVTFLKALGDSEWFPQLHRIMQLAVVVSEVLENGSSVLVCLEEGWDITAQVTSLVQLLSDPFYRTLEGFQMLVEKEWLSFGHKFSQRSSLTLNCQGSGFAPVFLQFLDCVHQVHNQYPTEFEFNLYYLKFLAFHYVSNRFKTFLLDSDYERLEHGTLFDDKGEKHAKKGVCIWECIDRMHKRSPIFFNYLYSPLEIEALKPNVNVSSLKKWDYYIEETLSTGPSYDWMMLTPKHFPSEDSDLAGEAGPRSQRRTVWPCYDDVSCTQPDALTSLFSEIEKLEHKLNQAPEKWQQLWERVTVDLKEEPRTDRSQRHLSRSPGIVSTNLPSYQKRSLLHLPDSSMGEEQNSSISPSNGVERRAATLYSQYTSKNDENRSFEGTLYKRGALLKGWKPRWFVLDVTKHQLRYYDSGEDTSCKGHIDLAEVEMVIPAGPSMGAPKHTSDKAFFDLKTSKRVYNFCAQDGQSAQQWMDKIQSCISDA
UniProt Q9BRV8: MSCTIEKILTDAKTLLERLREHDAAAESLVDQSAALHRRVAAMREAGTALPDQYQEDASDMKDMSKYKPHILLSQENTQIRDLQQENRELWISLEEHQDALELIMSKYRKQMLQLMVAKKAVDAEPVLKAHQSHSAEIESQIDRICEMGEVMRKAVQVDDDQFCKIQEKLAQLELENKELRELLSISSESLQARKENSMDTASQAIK
UniProt Q9UHD8, 238-257: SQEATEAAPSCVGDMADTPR
UniProt Q9GZR1, 349-369: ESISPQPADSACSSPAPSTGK
UniProt Q99611, 2-30: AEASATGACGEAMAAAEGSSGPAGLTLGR
UniProt Q9UHJ6: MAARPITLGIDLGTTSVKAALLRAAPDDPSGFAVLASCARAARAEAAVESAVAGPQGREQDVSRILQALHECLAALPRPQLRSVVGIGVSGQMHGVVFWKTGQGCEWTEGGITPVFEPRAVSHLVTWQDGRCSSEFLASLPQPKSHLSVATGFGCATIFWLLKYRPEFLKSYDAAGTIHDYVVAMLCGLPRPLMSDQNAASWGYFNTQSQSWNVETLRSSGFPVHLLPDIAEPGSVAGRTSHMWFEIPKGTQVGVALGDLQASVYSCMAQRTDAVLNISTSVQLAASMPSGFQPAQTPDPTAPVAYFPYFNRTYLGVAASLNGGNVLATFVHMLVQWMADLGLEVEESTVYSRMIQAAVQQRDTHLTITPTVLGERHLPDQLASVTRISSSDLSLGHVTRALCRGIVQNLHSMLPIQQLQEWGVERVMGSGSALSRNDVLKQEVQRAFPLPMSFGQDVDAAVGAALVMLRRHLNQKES

[2] = compound: ClCC(=O)N[C@H]1CCCc2ccccc12; assay: as above; conditions: treatment time: 4 h, cell line lysate: HEK293T
Method: as §1

Target	log2 mean competition ratio ([1]; 50 µM)	log2 mean competition ratio ([1]; 200 µM)	log2 mean competition ratio ([2]; 200 µM)	log2 mean competition ratio ([2]; 50 µM)
SARM1 C482 (UniProt Q6SZW1)	0.299	0.0392		
SEMA4F C170	-0.0797			
SEC61B C39 (UniProt P60468)	0.0412	0.0734		
SAMM50 C65 (UniProt Q9Y512)	-0.264	0.0573		
SAMD1 C383 (UniProt Q6SPF0)	0.392	-0.00984		
SCAPER C304 (UniProt Q9BY12)	-0.568	0.0596		
SF3A3 C145 (UniProt Q12874)	-0.0423	-0.0423		
SCYL1 C241 (UniProt Q96KG9)	0.0245	0.292		
SEC13 C245 (UniProt P55735)	-0.0973	0.000821		
SH3PXD2B C598 (UniProt A1X283)	0.375	0.00509		
SCAF11 C450 (UniProt Q99590)	0.0938	-0.0294		
SCAPER C71 (UniProt Q9BY12)	-0.362	0.101		
SH3RF3 C194	0.0718	0.263		
SCAF11 C1020 (UniProt Q99590)	0.117	-0.505		
SDCCAG8 C649	-0.221	0.0332		
SHMT2 C80	0.355	0.52		
SEC23IP C467 (UniProt Q9Y6Y8)	0.125	-0.16		
SHROOM3 C1403	-0.244	-0.465		
SH3PXD2B C783 (UniProt A1X283)	0.21	0.333		
SATB2 C159 (UniProt Q9UPW6)	-0.0371	-0.277		
SENP2 C283 (UniProt Q9HC62)	0.0838	0.235		

Fetched one by one from the entries so far, 3 records:
Target	log2 mean competition ratio ([1]; 50 µM)	log2 mean competition ratio ([1]; 200 µM)	log2 mean competition ratio ([2]; 200 µM)	log2 mean competition ratio ([2]; 50 µM)
SDCCAG8 C649	-0.221	0.0332		
SAMD1 C383 (UniProt Q6SPF0)	0.392	-0.00984		
SH3PXD2B C598 (UniProt A1X283)	0.375	0.00509		

Later entries.

Target	log2 mean competition ratio ([1]; 50 µM)	log2 mean competition ratio ([1]; 200 µM)	log2 mean competition ratio ([2]; 200 µM)	log2 mean competition ratio ([2]; 50 µM)
SH3PXD2B C102 (UniProt A1X283)	0.195	0.152		
SAP30BP C127 (UniProt Q9UHR5)	0.128	0.28		
SETD1A C1514 (UniProt O15047)	0.129	-0.0345		
SIK3 C655	-0.344	0.283		
SEC31A C704	0.0791	-0.0231		
SELENOO C364 (UniProt Q9BVL4)	-0.0834	-0.235		
SARM1 C311 (UniProt Q6SZW1)	0.958	0.44		
SETX C1262 (UniProt Q7Z333)	0.187	0.0592		
SFXN2 C290 (UniProt Q96NB2)	-0.112	0.13		
SETD6 C166 (UniProt Q8TBK2)	0.00486	-0.15		
SHTN1 C442 (UniProt A0MZ66)	0.227	-0.0683		
SF3A1 C244 (UniProt Q15459)	-0.0499	-0.26		
SANBR C164	-0.408	0.0916		
SEMA4D C783 (UniProt Q92854)	-0.0598	0.0202		
SCARF2 C350	0.105	0.0275		
SEH1L C49 (UniProt Q96EE3)	-0.0645	0.198	-0.198	
SGPP1 C76 (UniProt Q9BX95)	0.152	-0.418		
SENP1 C60	-0.119	0.0881		
SHC1 C196 (UniProt P29353)	-0.427	-0.237	-0.00881	-0.16
SCYL1 C309 (UniProt Q96KG9)	-0.159	0.219		
SEPTIN5 C300	-0.0303	-0.317		

Target	log2 mean competition ratio ([1]; 50 µM)	log2 mean competition ratio ([1]; 200 µM)	log2 mean competition ratio ([2]; 200 µM)	log2 mean competition ratio ([2]; 50 µM)
SH3BP1 C56 (UniProt Q9Y3L3)	0.151	-0.086	-0.137	-0.308
SEL1L C539 (UniProt Q9UBV2)	0.306	-0.111	-0.0118	
SEC23IP C814 (UniProt Q9Y6Y8)	-0.147	-0.347		
SBF2 C525 (UniProt Q86WG5)	-0.084	-0.342		
SIKE1 C164 (UniProt Q9BRV8)	0.106	-0.0563		
SAFB C448 (UniProt Q15424)	0.424	-0.031	0.0315	0.61
SERPINB9 C370 (UniProt P50453)	0.00197	-0.168	-0.147	0.316
SARM1 C649 (UniProt Q6SZW1)	0.434	0.175	0.21	
SEPTIN9 C248 (UniProt Q9UHD8)	-0.186	-0.226		
SHCBP1 C353 (UniProt Q8NEM2)	0.36	0.0426		
SIRT7 C282	0.2	-0.0249	-0.00213	
SFXN4 C70 (UniProt Q6P4A7)	-0.554	0.101		
SFSWAP C220 (UniProt Q12872)	-0.0518	-0.17		
SETD2 C2532 (UniProt Q9BYW2)	-0.0311	0.149		
SENP6 C360 (UniProt Q9GZR1)	0.00913	0.0862		
SHMT2 C91	0.269	0.0331		
SEPHS2 C10 (UniProt Q99611)	0.0159	-0.285		
SHPK C38 (UniProt Q9UHJ6)	0.264	0.148		
SDCCAG8 C34	0.758	0.17	-0.0164	0.591
